Assay: Fluorescence turn-on of caged D-F07 derivatives by UV, hydrogen peroxide or thiols
Assay type: physicochemical

SMILES: COc1cc2c3c(c(=O)oc2c(C2OCCCO2)c1OS(=O)(=O)c1ccc([N+](=O)[O-])cc1[N+](=O)[O-])CN(C)CC3 [TC-D-F07, 7-(1,3-dioxan-2-yl)-9-methoxy-3-methyl-5-oxo-1,3,4,5-tetrahydro-2H-chromeno[3,4-c]pyridin-8-yl 2,4-dinitrobenzenesulfonate]
- fluorescence response to GSH (2.5 μM, 0 to 1 mM GSH, room temperature, 10 min): Dose-dependent increase of fluorescence
- fluorescence response to methionine or glycine (2.5 μM, room temperature, 10 min): No change in fluorescence

SMILES: COc1cc2c3c(c(=O)oc2c(C2OCCCO2)c1OCc1ccc(B2OC(C)(C)C(C)(C)O2)cc1)CN(C)CC3 [BC-D-F07a, 7-(1,3-dioxan-2-yl)-9-methoxy-3-methyl-8-((4-(4,4,5,5-tetramethyl-1,3,2-dioxaborolan-2-yl)benzyl)oxy)-1,2,3,4-tetrahydro-5H-chromeno[3,4-c]pyridin-5-one]
- increase in fluorescence intensity with hydrogen peroxide (200 μM hydrogen peroxide, 1 h, room temperature): approximately 8 fold

SMILES: COc1cc2c3c(c(=O)oc2c(C2OCCCO2)c1OC(C)c1ccc(C(=O)OCC[Si](C)(C)C)cc1[N+](=O)[O-])CN(C)CC3 [PC-D-F07, 2-(trimethylsilyl)ethyl 4-(1-((7-(1,3-dioxan-2-yl)-9-methoxy-3-methyl-5-oxo-1,3,4,5-tetrahydro-2H-chromeno[3,4-c]pyridin-8-yl)oxy)ethyl)-3-nitrobenzoate]
- increase in fluorescence intensity upon UV irradiation (conversion to D-F07) (10 μM in DMSO/PBS 1:99, UV 0.55 W/cm^2): approximately 75 fold

SMILES: COc1cc2c3c(c(=O)oc2c(C2OCCCO2)c1B1OC(C)(C)C(C)(C)O1)CN(C)CC3 [BC-D-F07b, 7-(1,3-dioxan-2-yl)-9-methoxy-3-methyl-8-(4,4,5,5-tetramethyl-1,3,2-dioxaborolan-2-yl)-3,4-dihydro-1H-chromeno[3,4-c]pyridin-5(2H)-one]
- hydrogen peroxide dose-dependent fluorescence enhancement (oxidation to D-F07) (0 to 2 mM hydrogen peroxide, 37° C., 1 h): higher concentrations of hydrogen peroxide and higher incubation temperature (37° C.) were required
